Our source for the cell viability values is the supplement of paper PMC11150407.

Most of the strong results are listed elsewhere, so they are rarer here than in the full data.

The subject of the assay is MOLM1 and UCSD/AML1 (averaged). Briefly: cell viability relative to DMSO control (POC); higher = less growth inhibition. As to conditions: 1 µM; 72 h. The procedure:
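Primary viability screen in the 3q26 EVI1-high AML cell lines MOLM1 and UCSD/AML1, compounds at 1 uM for 72 h. ATP CellTiter-Glo read-out given as percent viable over DMSO control (POC), averaged over duplicates. This mapping covers the TimTec NDL-3000 natural derivative library, whose compounds are identified by TimTec catalogue codes (ST...).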
`COc1ccc(NC(=O)/C=C/c2ccccc2)cc1` registered a cell viability of 91.4%.
Consider `O=C1CC(c2ccccc2)Oc2cc(O)ccc21` (configuration not stated), for which the cell viability came out at 99.4%.

Usually cell viability stands for a per cent measure of how many cells are alive, often set against a control.
